# Experimental data from publication PMC10598017.
# Amino acid sequences for entries named in this document (tags omitted). A change or cut given only in a name is not applied to a line headed by its entry.
# UniProt Q9Z2X8: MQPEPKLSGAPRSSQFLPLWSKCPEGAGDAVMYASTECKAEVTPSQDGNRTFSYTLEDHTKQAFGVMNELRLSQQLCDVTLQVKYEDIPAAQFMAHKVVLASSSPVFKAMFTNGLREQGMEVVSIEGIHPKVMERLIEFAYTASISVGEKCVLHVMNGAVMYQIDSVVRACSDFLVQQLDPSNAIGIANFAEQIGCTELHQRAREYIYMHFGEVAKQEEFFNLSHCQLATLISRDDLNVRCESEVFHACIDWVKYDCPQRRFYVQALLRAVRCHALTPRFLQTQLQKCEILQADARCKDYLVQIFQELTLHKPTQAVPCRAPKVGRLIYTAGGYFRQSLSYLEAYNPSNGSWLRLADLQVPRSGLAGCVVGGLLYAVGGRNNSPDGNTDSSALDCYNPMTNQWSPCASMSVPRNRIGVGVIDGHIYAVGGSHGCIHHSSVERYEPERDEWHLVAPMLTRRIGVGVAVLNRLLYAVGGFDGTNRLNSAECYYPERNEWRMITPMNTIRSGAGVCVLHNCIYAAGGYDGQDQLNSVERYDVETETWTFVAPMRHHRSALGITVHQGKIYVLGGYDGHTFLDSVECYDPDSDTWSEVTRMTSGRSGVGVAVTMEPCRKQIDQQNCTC
# UniProt Q9DBY1: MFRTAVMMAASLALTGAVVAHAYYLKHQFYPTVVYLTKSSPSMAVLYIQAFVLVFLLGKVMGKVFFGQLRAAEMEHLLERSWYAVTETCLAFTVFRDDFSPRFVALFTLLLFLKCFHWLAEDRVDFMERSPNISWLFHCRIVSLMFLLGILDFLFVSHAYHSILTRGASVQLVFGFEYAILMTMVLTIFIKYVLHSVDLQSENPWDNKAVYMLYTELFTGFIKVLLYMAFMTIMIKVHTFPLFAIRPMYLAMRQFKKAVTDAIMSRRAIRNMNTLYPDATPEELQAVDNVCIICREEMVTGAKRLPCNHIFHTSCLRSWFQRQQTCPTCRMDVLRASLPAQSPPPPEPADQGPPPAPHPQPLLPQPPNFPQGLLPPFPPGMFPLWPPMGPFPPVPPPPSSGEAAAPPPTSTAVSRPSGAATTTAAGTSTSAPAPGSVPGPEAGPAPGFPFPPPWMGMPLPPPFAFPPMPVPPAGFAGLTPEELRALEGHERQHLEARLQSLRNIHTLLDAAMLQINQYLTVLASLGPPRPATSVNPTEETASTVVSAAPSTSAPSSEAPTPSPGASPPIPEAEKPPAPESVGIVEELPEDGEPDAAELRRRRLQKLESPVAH
# No constants are given. Whether binding was seen depends on the method and setting. In cells and extracts the contact can be indirect. Some results given as binding are weak or reduced against the parent protein; the word gives no strength.
# Tests used:
# [1] = target: Kelch-like ECH-associated protein (Keap1) (mouse (endogenous in mouse heart tissue and HL-1 cardiomyocytes)) (UniProt Q9Z2X8); assay: co-IP; lysates of HL-1 cardiomyocytes transfected with empty plasmid or Syvn1 C115A adenovirus, treated with HG + PA and NaHS; protein A/G magnetic beads overnight at 4 °C, western blot
# [2] = target: Kelch-like ECH-associated protein (Keap1) (mouse (endogenous in mouse heart tissue and HL-1 cardiomyocytes)) (UniProt Q9Z2X8); assay: co-IP; lysates of heart tissue of WT, db/db and NaHS-treated db/db mice; 320 ug protein, antibody 10 ug/500 ug protein, protein A/G magnetic beads overnight at 4 °C, washed three times with lysis buffer, western blot
Substance,binding [1],binding [2]
Syvn1 C115A (from UniProt Q9DBY1 1-612),binds,
synoviolin (Syvn1) (from UniProt Q9DBY1 1-612),binds,binds
